# PubChem BioAssay AID493014 (National Center for Advancing Translational Sciences (NCATS), 2011)
# This is one part of the list. The main result of the screen is listed elsewhere. These columns were measured beside it and carry no call. The list favours compounds with an active or inconclusive main result. Words in brackets tell the shape of the fitted curve; partial curves, single points and poor fits give uncertain potencies.
# Test: qHTS Assay to Find Inhibitors of Chronic Active B-Cell Receptor Signaling
# Settings: ABC-DLBCL IkBa-CBG/CBR reporter, luminescence ratio (green luciferase fused to IkBa over red control in TMD8 lymphoma cells), 4 h
# Procedure, shortened: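 TMD8 human ABC-DLBCL cells with doxycycline-inducible IκBα–green luciferase fusion and unfused red luciferase, in 0.5% FBS medium; compounds up to 46 uM, 4 h at 37C. Green/red luminescence ratio, filter-overlap corrected, fitted to concentration-response curves.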
# [1] = measured here: CBR red luminescence, cell number
Structure (SMILES),AC50 [1],AC50 (measured here: IkBa-CBG green luminescence)
CC(C)(C)C(=O)Oc1cc(N)n(S(=O)(=O)c2ccccc2)n1,"29.1 µM [falling, single point]",
CCCn1c(NC(=O)C2COc3ccccc3O2)nc2ccccc21 (stereo not drawn),"0.291 µM [rising, full curve, poor fit]",
CC(=O)NS(=O)(=O)c1ccc(N=c2ssc3c2-c2cc(C)c(C)cc2NC3(C)C)cc1,"5.17 µM [falling, partial curve]",
O=C(Nc1nc2ccccc2[nH]1)c1cc(F)cc(F)c1,"2.24 µM [falling, full curve]",
Nc1c(N(Cc2ccco2)C(=O)c2cccc(Cl)c2)c(=O)[nH]c(=O)n1Cc1ccccc1,"0.92 µM [falling, full curve]",
CCCCn1c(-c2ccc(Cl)c(Cl)c2)nc2cc3[nH]c(=O)c(C(C)C)nc3cc21,"12.6 µM [falling, single point]",
CN(Cc1ccccc1)C(=O)COc1ccc(-c2nnco2)cc1,"6.51 µM [rising, single point]",
COc1ccc(OC)c(NC(=O)CN2c3cccc4cccc(c34)S2(=O)=O)c1,"5.17 µM [rising, single point]",
COc1ccc(CNc2nc(NCc3ccc(OC)cc3)c3[nH]cnc3n2)cc1,"35.5 µM [falling, single point]",
Cc1ccc(OCCCCN2CCC(C)CC2)cc1,"12.6 µM [rising, partial curve]",
O=C(Nc1nc2c(s1)CCCC2)C1COc2ccccc2O1 (stereo not drawn),"14.6 µM [falling, single point]",
COc1ccc(CCNC(=S)NC(=O)c2c(-c3ccccc3Cl)noc2C)cc1OC,"0.708 µM [rising, partial curve, poor fit]",
Clc1ccc(C2CC(c3ccco3)n3ncnc3N2)cc1Cl (stereo not drawn),"18.4 µM [falling, single point]",
CCCOC(=O)c1ccc(NC(=O)c2cccc(S(=O)(=O)N3CCN(C(C)=O)CC3)c2)cc1,"31.6 µM [falling, single point]",
Cc1c(N=C2NN=C(c3c[nH]c4ccccc34)CS2)c(=O)n(-c2ccccc2)n1C,"35.5 µM [falling, single point]",
CCCCn1c(SCC(=O)c2ccccc2)nc2c(sc3ccccc32)c1=O,"0.112 µM [rising, full curve, poor fit]",
C(=C\n1nnc2ccccc21)/c1ccc[nH]1,"23.1 µM [rising, single point]",
COc1ccc(C(=O)Nc2ccccc2Cc2ccccc2)c(OC)c1,"6.51 µM [falling, partial curve, poor fit]",
COc1cc(/C=C(\NC(C)=O)C(=O)O)cc(OC)c1OC,"14.1 µM [rising, partial curve, poor fit]",
COc1cc(/C=N/NC(=O)CC#N)cc(Br)c1O,"12.6 µM [rising, partial curve, poor fit]",
CCc1c(C)nc2ncnn2c1N1CCCC(C(=O)NCCc2ccc(OC)cc2)C1 (stereo not drawn),"6.31 µM [rising, single point]",

# One compound at a time, from the list above.
# CCCCn1c(-c2ccc(Cl)c(Cl)c2)nc2cc3[nH]c(=O)c(C(C)C)nc3cc21 is listed with AC50 [1]: 12.6 µM [falling, single point]
# O=C(Nc1nc2c(s1)CCCC2)C1COc2ccccc2O1 (stereo not drawn) is listed with AC50 [1]: 14.6 µM [falling, single point]

# (list continues)

Structure (SMILES),AC50 [1],AC50 (measured here: IkBa-CBG green luminescence)
C/C(=N/NC(=O)c1ccco1)c1ccc(NC(=O)c2ccc(F)cc2)cc1,"29.1 µM [falling, single point]",
O=c1[nH]c(SCCOc2ccccc2F)nc2ccccc12,"22.4 µM [falling, single point]","12.6 µM [rising, single point]"
CCN(CC(=O)NCc1ccc(Cl)cc1)C(=O)CSc1cccc(C(F)(F)F)c1,"16.4 µM [falling, partial curve]",
COC(=O)c1[nH]nc2c1C(=O)N(C1CCCCC1)C2=O,"22.4 µM [rising, single point]",
O=C(NC(=S)Nc1ccccn1)c1ccco1,"11.6 µM [falling, single point]",
O=C(O)CCCC(=O)Nc1ccc(OCc2nc3ccccc3s2)cc1,"7.08 µM [rising, full curve, poor fit]",
COc1cc(/C=N/NC(=O)CN(CCc2ccccc2)S(=O)(=O)c2ccc(NC(C)=O)cc2)cc(OC)c1OC,"14.6 µM [rising, partial curve, poor fit]",
CCC1Oc2ccccc2C(=O)N(CC(=O)c2ccc3c(c2)OCCO3)C1=O (stereo not drawn),"3.16 µM [falling, single point]",
O=C(CNC(=O)c1ccco1)NCC(=O)OCc1ccccc1Br,"11.2 µM [rising, partial curve]",
CC(C)OC(=O)c1ccc(N2CCN(c3ccc(F)cc3)CC2)nc1,"5.62 µM [rising, full curve]",
Cc1cc(NC(=O)c2ccc(COc3ccc(Cl)c(C)c3)o2)no1,"20.6 µM [falling, single point]",
Cc1c(Br)cc(C(=O)NCc2ccco2)c(C)c1C,"2.31 µM [falling, single point]",
Cc1cccc(C)c1NC(=O)CN(C)C(=O)CCC(=O)N1CCOCC1,"29.1 µM [rising, single point]",
CC(=O)Nc1ccc(NC(=O)CSc2ccc3nnc(CCNS(=O)(=O)c4ccc(C)cc4)n3n2)cc1,"7.08 µM [rising, full curve, poor fit]",
CCCC(O)(c1ccc(OC)cc1)C(CN(C)C)c1ccccc1 (stereo not drawn),"29.1 µM [rising, single point]",
O=C(Cc1cccc(Cl)c1)Nc1ccc(Br)cc1,"4.47 µM [rising, partial curve, poor fit]",
COc1ccccc1CCc1nnc(CCC(=O)N(C)Cc2cccc3cnccc23)o1,"0.891 µM [rising, full curve]",
CCC(=O)Nc1cccc(NC(=O)c2ccc(C)cc2Cl)c1,"14.1 µM [rising, single point]",
COc1cccc(-c2nc(C(=O)NCCCN3CCOCC3)cc3c2[nH]c2ccccc23)c1,"20 µM [falling, single point]",
COc1cc(NS(=O)(=O)c2ccc(NC(=O)C34CC5CC(CC(C5)C3)C4)cc2)ncn1,"6.51 µM [rising, single point]",
CC1Cc2c([nH]c3ccccc23)C2c3ccccc3CN12 (stereo not drawn),"7.08 µM [falling, partial curve]",
